This is one part of the list. Further columns of the screen follow, without active or inactive calls. Compounds called inactive in the main read-out are mostly missing here. Words in brackets tell the shape of the fitted curve; partial curves, single points and poor fits give uncertain potencies.

A short description of this experiment: qHTS Assay for Lipid Storage Modulators in Drosophila S3 Cells.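 On cell number change: cells counted by Cell Tracker Red CMTPX staining in the red channel.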 The note with it: BODIPY lipid droplet fluorescence, 18-24 h; for cell number change: measured here: cell count max response, cells fed with added oleic acid. The procedure, abridged:
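Drosophila S3 cells got compounds at several concentrations plus oleic acid (400 uM solution). Laser-scanning cytometry with 488 nm excitation read lipid droplets at 500-530 nm and cells at 575-640 nm. Percent activity was relative to 20 uM Triacsin C.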
On the technique in general: qHTS replaces the single test concentration by a dilution series.

Setting [1] is: measured here: lipid fluorescence (Fed channel) AC50, cells fed with added oleic acid.
Setting [2] is: measured here: cell number channel AC50, cells fed with added oleic acid.

Broadly, the AC50 is the concentration giving half of the maximal activity seen. A higher AC50 goes with weaker potency. Consider `O=C(NCCCN1CCCC1=O)C(=O)NCC1OCCN1S(=O)(=O)c1ccc(Cl)cc1` (centres undefined), for which the cell number change stood at 21.7%. The concentration at half-maximal activity (AC50) under setting [1] was 20.6 µM [rising, single point].

Consider `CSc1n[nH]c(NCc2cccs2)n1`, for which the cell number change was -32.9%. The AC50 under setting [2] was 1.03 µM [falling, full curve]. Further, the AC50 under setting [1] was 0.651 µM [falling, full curve].

For `O=C(CCS(=O)(=O)c1ccc(Br)s1)NC1CCCCCC1`, the cell number change turned out to be 43.2%. The AC50 under setting [2] was 8.2 µM [rising, partial curve].

`Cc1ccccc1OCC(=O)Nc1cccc(S(=O)(=O)NC2=NCCC2)c1`: the cell number change is -10.8%. Further, under setting [1], the concentration at half-maximal activity (AC50) is 0.164 µM [rising, full curve, poor fit].

Turning to `COC(=O)[C@@H](NC(=O)NCc1ccc(F)cc1)C(C)C`, the cell number change is 0.982%. Further, under setting [1], the AC50 was 6.51 µM [rising, full curve, poor fit].

Take `Cc1ncc(CO)c(/C=N/NC(=O)c2ccoc2C)c1O`: the cell number change was -2.01%.

As for `CC1(C)C(=O)OC(c2ccc([N+](=O)[O-])cc2)C(C)(C)C1=O` (centres undefined), the cell number change is 38.9%. Under setting [2], the half-maximal activity concentration (AC50) is 20.6 µM [rising, single point].

For `Cc1cnc(NC(=O)CSc2nnc(C)n2N)s1`, the cell number change is -24.4%. Moreover, under setting [2], the concentration at half-maximal activity (AC50) is 0.82 µM [falling, full curve, poor fit]. The half-maximal activity concentration (AC50) under setting [1] was 3.26 µM [falling, full curve, poor fit].

Turning to `O=C(Nc1ccccc1)C1CC(=O)n2c(nc3ccccc32)N1` (centres undefined), the AC50 under setting [1] was 0.92 µM [falling, full curve, poor fit].

Consider `CC(C)NC(=O)Cn1cnc2c1c(=O)n(C)c(=O)n2C`, for which the cell number change is 2.89%.

Consider `CC(C)OP(=O)(OC(C)C)C(Nc1ccccn1)c1ccc(F)cc1` (centres undefined), for which the cell number change was -8.19%. Further, the AC50 under setting [1] is 0.146 µM [falling, full curve, poor fit].

With `COC(=O)c1cccc(Cn2cc([N+](=O)[O-])cn2)c1`, the cell number change is 7.16%. Also, the AC50 under setting [2] is 1.84 µM [rising, partial curve, poor fit]. Moreover, the AC50 under setting [1] was 0.116 µM [rising, full curve, poor fit].

On to `OC(Cc1nc2ccccc2[nH]1)c1ccccc1Cl` (centres undefined), for which the concentration at half-maximal activity (AC50) was 0.731 µM [rising, single point] under setting [2] and 1.64 µM [rising, single point] under setting [1].

Consider `Cc1ncc([N+](=O)[O-])n1Cc1ccccc1`, for which the cell number change is -18%. Moreover, the concentration at half-maximal activity (AC50) under setting [1] was 0.0058 µM [falling, full curve, poor fit].

Take `O=C1CCCS(=O)(=O)c2ccccc21`: the cell number change was determined as 3.58%. In addition, the concentration at half-maximal activity (AC50) under setting [1] is 0.103 µM [falling, full curve, poor fit].

In the case of `COc1ccc(CCNC(=O)COC(=O)c2ccc(C)s2)cc1OC`, the cell number change is -55.6%. The half-maximal activity concentration (AC50) under setting [2] was 8.2 µM [falling, partial curve, poor fit]. The half-maximal activity concentration (AC50) under setting [1] is 1.84 µM [falling, full curve].

On to `COc1ccc(S(=O)(=O)NCCC(=O)NCc2cccs2)cc1`, for which the cell number change stood at 30.1%. The AC50 under setting [2] is 32.6 µM [rising, single point]. Further, the concentration at half-maximal activity (AC50) under setting [1] was 6.51 µM [rising, single point].

For the compound `CC1CCN(C2CCN(S(=O)(=O)c3ccc(C(F)(F)F)cc3)CC2)CC1`, the AC50 under setting [2] is 0.13 µM [rising, partial curve, poor fit].

Turning to `COc1ccccc1CCNC(=O)c1ccc(NC(=O)CC2SC(N3CCCC3)=NC2=O)cc1` (centres undefined), the cell number change is 18.8%. Also, under setting [1], the AC50 was 4.11 µM [rising, single point].

Turning to `CC(C)(C)OC(=O)NCCc1nnc(SCC(=O)Nc2cccc(Cl)c2)o1`, the cell number change is -14.3%.

With `COC(=O)Cc1[nH]n(-c2ccccc2)c(=O)c1C=Nc1ccc(C)cc1`, the cell number change was determined as 12.1%. The AC50 under setting [2] is 0.00411 µM [rising, full curve, poor fit]. Under setting [1], the AC50 was 0.0146 µM [rising, full curve, poor fit].

Turning to `O=C1/C(=C/c2cccc(Cl)c2)SC(=S)N1CCC(=O)N1CCCCC1CCO` (centres undefined), the cell number change was determined as 2.36%. Moreover, under setting [1], the concentration at half-maximal activity (AC50) was 29.1 µM [falling, single point].

Consider `COc1ccccc1CC(=O)NN1C(=O)NC2(CCC(C)CC2)C1=O` (centres undefined), for which the cell number change was -25.7%.

For the compound `Cc1ccc2nc(SCC(=O)N(CC(C)C)c3c(N)n(CC(C)C)c(=O)[nH]c3=O)[nH]c2c1`, the cell number change was 51.2%. In addition, the concentration at half-maximal activity (AC50) under setting [2] is 9.2 µM [rising, partial curve, poor fit].

For the compound `O=C(O)c1cc2cc(Oc3ccccc3)ccc2[nH]1`, the cell number change was 29.8%. Moreover, the AC50 under setting [1] was 29.1 µM [rising, single point].

As for `COC(=O)c1ccc(C(c2c(N)n(Cc3ccccc3)c(=O)n(C)c2=O)N2CCOCC2)cc1` (centres undefined), the cell number change is -0.452%. The AC50 under setting [1] is 6.51 µM [rising, single point].

With `COc1ccc(C(=O)N2CCN(c3ccccc3)CC2)cc1S(=O)(=O)NC1CC1`, the cell number change was -1.81%. Also, under setting [1], the concentration at half-maximal activity (AC50) was 3.66 µM [rising, partial curve].

On to `CC(=O)Nc1ccc(O)cc1[N+](=O)[O-]`, for which the cell number change was -0.265%. Also, the concentration at half-maximal activity (AC50) under setting [2] was 6.51 µM [falling, single point]. The concentration at half-maximal activity (AC50) under setting [1] was 6.51 µM [falling, partial curve].

With `Cn1nc(C(=O)N2CCN(S(=O)(=O)/C=C/c3ccccc3)CC2)c2ccccc2c1=O`, the cell number change is 0.711%. Besides, the concentration at half-maximal activity (AC50) under setting [1] was 13 µM [rising, single point].

For the compound `O=C(N/N=C/c1cn(-c2ccccc2)nc1-c1ccc(F)cc1)c1ccc(Br)o1`, the cell number change is -29.6%. Also, under setting [1], the AC50 was 0.651 µM [rising, single point].

Take `FC(F)(F)c1cccc(-c2nc3nc(Cl)c(Cl)nc3[nH]2)c1`: the cell number change was -61.1%. The AC50 under setting [2] was 9.2 µM [falling, partial curve]. Besides, under setting [1], the half-maximal activity concentration (AC50) is 8.2 µM [falling, partial curve].

For `COc1ccc(C(=O)NCC(=O)N2CCCC(C(F)(F)F)C2)cc1OC` (centres undefined), the cell number change was -32.6%. For the same compound, the AC50 under setting [2] is 16.4 µM [falling, single point]. For the same compound, the AC50 under setting [1] is 14.6 µM [falling, partial curve, poor fit].

Take `Cc1ccc(S(=O)c2ccc(C)cc2)cc1`: the cell number change worked out at 10.7%.

With `O=C(N/N=C/c1ccc2c(c1)OCO2)C(=O)N1CCCC1`, the cell number change amounted to 6.54%. Moreover, under setting [1], the AC50 is 0.82 µM [rising, single point].

As for `CCCn1nc(CC(=O)O)c2ccccc2c1=O`, the cell number change worked out at 28.6%. For the same compound, under setting [1], the AC50 was 18.4 µM [rising, single point].

On to `CNC(=O)c1nnn(-c2ccccc2)c1C(=O)NC`, for which the cell number change was 2.17%. Under setting [1], the concentration at half-maximal activity (AC50) was 0.00461 µM [falling, full curve, poor fit].

In the case of `COC(=O)c1ccc(OCC(=O)Nc2ccsc2C(=O)OC)cc1`, the AC50 under setting [1] is 6.51 µM [rising, single point].

As for `COc1ccc(CCN(C)C(=O)c2ccc(OCC(=O)N3CCOCC3)c(OC)c2)cc1OC`, the cell number change was -9.15%. The AC50 under setting [1] was 14.6 µM [falling, single point].

For `CCCN(C(=O)CSc1n[nH]c(-c2ccc(OC)cc2)n1)c1c(N)n(Cc2ccccc2)c(=O)[nH]c1=O`, the cell number change came to 75.6%. Moreover, the half-maximal activity concentration (AC50) under setting [2] is 29.1 µM [rising, single point]. The AC50 under setting [1] was 0.206 µM [rising, full curve, poor fit].

For `CCOC(=O)CNC(=O)CSc1nnc(NC(=O)c2ccccc2Cl)s1`, the cell number change worked out at 138%. Moreover, the AC50 under setting [1] was 29.1 µM [rising, single point].

For the compound `Cc1cccc(NC(=O)Cn2c(O)c(N=NC(=O)c3ccncc3)c3ccccc32)c1`, the cell number change stood at 49.6%. Besides, the half-maximal activity concentration (AC50) under setting [2] is 2.31 µM [rising, full curve].

In the case of `O=c1cc(O)c2c(=O)n(C3CCCCC3)c3ccccc3c2o1`, the cell number change amounted to 5.05%. Moreover, under setting [1], the AC50 was 3.66 µM [falling, partial curve, poor fit].

For the compound `COc1ccc(OCCCC(=O)Nc2ncn[nH]2)cc1`, the cell number change turned out to be 35%. Moreover, the AC50 under setting [2] is 29.1 µM [rising, single point].

For `Cc1cccc(N2CCN(C(=S)Nc3ccc4nc(N5CCN(C)CC5)cc(C)c4c3)CC2C)c1` (centres undefined), the cell number change was -49%. Besides, the AC50 under setting [2] was 32.6 µM [falling, single point].

With `COc1ccc(S(=O)(=O)NCCc2cn3nc(C)c(C)nc3n2)cc1`, the cell number change is -13.5%. In addition, the AC50 under setting [1] is 4.61 µM [falling, single point].

For `CCCC(C)NC(=O)/C=C/c1cccc([N+](=O)[O-])c1` (centres undefined), the half-maximal activity concentration (AC50) under setting [2] is 0.731 µM [rising, single point].

Regarding `CCc1c(C)sc(NC(=O)c2ccoc2C)c1C(N)=O`, the cell number change is -4.11%.

For the compound `Cc1ccccc1N=Nc1c(C)[nH]n(-c2ccccc2)c1=O`, the cell number change is -0.608%. For the same compound, the half-maximal activity concentration (AC50) under setting [2] was 5.8 µM [falling, single point].

As to `Cc1cc(NC(=O)c2c(Cl)cnn2C)no1`, the cell number change is -2.07%. Further, the AC50 under setting [2] was 1.46 µM [falling, full curve]. The AC50 under setting [1] is 13 µM [falling, partial curve].

For `COc1ccc(N2C(=O)[C@@H]3[C@H](C2=O)[C@H](C(=O)c2ccc(OC(C)=O)cc2)N2N=CC=C[C@@H]32)cc1`, the cell number change was -3.83%. Also, the concentration at half-maximal activity (AC50) under setting [1] was 7.31 µM [rising, partial curve, poor fit].

Consider `COC(=O)c1ccc(COc2ncnc3c(Cl)cc(Cl)cc23)o1`, for which the cell number change was determined as 22.2%. The AC50 under setting [2] was 1.84 µM [rising, partial curve, poor fit]. The half-maximal activity concentration (AC50) under setting [1] was 3.26 µM [rising, partial curve].

In the case of `O=C1C2C3C=CC(C3)C2C(=O)N1Nc1ccccc1` (centres undefined), the cell number change came to 7.95%. Moreover, the half-maximal activity concentration (AC50) under setting [1] is 29.1 µM [rising, single point].

On to `COc1ccc(OC)c(C2C(C(N)=O)=C(C)Nc3nc(CCCO)nn32)c1` (centres undefined), for which the cell number change is -38.1%. The concentration at half-maximal activity (AC50) under setting [2] is 29.1 µM [falling, single point]. Moreover, the AC50 under setting [1] is 8.2 µM [falling, partial curve, poor fit].

For `COc1cc(/C=C2\Oc3cc(O)ccc3C2=O)ccc1O`, the cell number change is -30.1%. In addition, the AC50 under setting [2] was 16.4 µM [falling, single point]. The concentration at half-maximal activity (AC50) under setting [1] was 23.1 µM [falling, single point].

With `O=C(CN1CSCC1=O)N1CCN(S(=O)(=O)c2cccc(F)c2)CC1`, the cell number change is 42%. Also, under setting [2], the concentration at half-maximal activity (AC50) was 0.146 µM [rising, full curve, poor fit]. The AC50 under setting [1] was 2.31 µM [rising, full curve].

On to `Cc1ccccc1CSCCNC(=O)c1ccccc1`, for which the cell number change stood at 5.94%. Besides, the AC50 under setting [1] was 29.1 µM [rising, single point].

In the case of `O=C(CSc1nnc(Cc2cc(=O)[nH]c(=O)[nH]2)n1-c1ccc(Cl)cc1)NCC1CCCO1` (centres undefined), the cell number change was -2.8%. For the same compound, the AC50 under setting [1] is 0.00517 µM [falling, full curve, poor fit].

Values taken from PubChem BioAssay AID2685 (National Center for Advancing Translational Sciences (NCATS), 2010).
